Source: publication PMC7819943, “Rice protein-binding microarrays: a tool to detect cis-acting elements near promoter regions in rice”
The other results are listed elsewhere or left out.

The sequences below were run against T1, OsSMF1 (Oryza sativa, UniProt Q6ZLB0 1-436) (assay: protein-binding microarray (RPBM); PBS, 2% BSA, 51.3 ng/ul salmon testes DNA, 50 uM zinc acetate, 200 nM TF, 25 C, 1 h; high values mean tight binding). Conditions: protein: recombinant; tags: N-terminal polyhistidine and DsRed monomer fusion (pET32a); chain copies: 2; label: CyDye5-dUTP incorporated in the synthesized complementary strand; 3' TTTTT single-stranded linker to array surface; dsDNA, one strand shown.
T1 sequence: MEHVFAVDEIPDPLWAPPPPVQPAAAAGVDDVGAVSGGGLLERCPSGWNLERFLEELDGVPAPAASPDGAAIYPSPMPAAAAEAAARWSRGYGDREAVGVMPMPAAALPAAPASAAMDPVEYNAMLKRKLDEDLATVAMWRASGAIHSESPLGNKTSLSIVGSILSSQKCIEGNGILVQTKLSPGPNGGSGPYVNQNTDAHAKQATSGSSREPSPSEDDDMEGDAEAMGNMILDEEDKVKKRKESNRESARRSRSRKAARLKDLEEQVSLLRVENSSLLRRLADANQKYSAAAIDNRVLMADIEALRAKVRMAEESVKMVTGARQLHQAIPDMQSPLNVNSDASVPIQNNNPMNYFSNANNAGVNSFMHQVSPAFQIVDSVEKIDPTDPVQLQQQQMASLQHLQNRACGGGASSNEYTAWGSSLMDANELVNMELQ
Procedure, shortened: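 For the binding signal, per-feature fluorescence intensity was read in arbitrary units on an Axon 4000B scanner. Before scanning, a 2% BSA-blocked custom Agilent array made double-stranded with Cy5-dUTP was washed after 1 h at 25 °C with 200 nM protein and 50 µM zinc acetate. The proteins were Ni–NTA-purified transcription factors with N-terminal polyhistidine and DsRed fusions, expressed in E. coli BL21-CodonPlus.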

Row | Sequence | binding signal
1 | CAGCCATCATTGGGCCTGTCCCCATCTTCCATTGGGCCGGCGGAGTCACCTAGTGCAG | 32600 fluorescence intensity (a.u.)
2 | CCGGCCACTCCCTTCAGCGAAATCCGTAGTCAGCAAGTTGCGGAGTCACCTAGTGCAG | 4390 fluorescence intensity (a.u.)
3 | CAGCTGCGCTTGGTGCTTCTGCTTTTGTAGCACATCATCACGGAGTCACCTAGTGCAG | 37100 fluorescence intensity (a.u.)
4 | GTGTGGCCCCATGCTTGCAAATGCTAGGCCTCATTGTTTTCGGAGTCACCTAGTGCAG | 22500 fluorescence intensity (a.u.)
5 | GTTTTGTGATTTGGTACATGTGGTAGCATTCACCAAATGTCGGAGTCACCTAGTGCAG | 39600 fluorescence intensity (a.u.)
6 | CCTGTTACGTGGTACATGAGAGTGGTAAGCCATTTCTCTTCGGAGTCACCTAGTGCAG | 4140 fluorescence intensity (a.u.)
7 | CGGCGGCAACACTGTCACTGTTCCCATCTTGAATTATGTCCGGAGTCACCTAGTGCAG | 3270 fluorescence intensity (a.u.)
8 | AAGGCTTTGGGCCTCTTGGTCCAGTCAAAGGATAAACCCACGGAGTCACCTAGTGCAG | 3600 fluorescence intensity (a.u.)
9 | CATGTTTGTTGCTGCTGACGGTGGTGATGGCGTGTGAGCACGGAGTCACCTAGTGCAG | 6850 fluorescence intensity (a.u.)
10 | TCGCCCTCGACTCCGCTCTCCTGCGCTGCCCGATTTCCATCGGAGTCACCTAGTGCAG | 3330 fluorescence intensity (a.u.)
11 | GAGAAGAGATTGCTGACTAGGATTGTTGGCCCCACATTTTCGGAGTCACCTAGTGCAG | 18500 fluorescence intensity (a.u.)
12 | CCAGTAGCCCGTAGTCACGTTCCCAACCCCGCCCAGTGATCGGAGTCACCTAGTGCAG | 4860 fluorescence intensity (a.u.)
13 | CTGATGTCAACCGTCGAGTCAAGCGGTGGTGGTGGTGGCGCGGAGTCACCTAGTGCAG | 3360 fluorescence intensity (a.u.)
14 | GCACATCTTCCTTAATTGCCAAAAGAGTAAATTTCACGAACGGAGTCACCTAGTGCAG | 43300 fluorescence intensity (a.u.)
15 | TCACCTAGGCCGAACCCTACCCCGCTGCACACGTGGACGTCGGAGTCACCTAGTGCAG | 17800 fluorescence intensity (a.u.)
16 | AGAGCAATTGACTGACATACCATTATTAAGATGAACTGATCGGAGTCACCTAGTGCAG | 3370 fluorescence intensity (a.u.)
17 | CTAACTTAAAATAGAATCAAACAGTACAACAAATATAAATCGGAGTCACCTAGTGCAG | 9880 fluorescence intensity (a.u.)
18 | GATCCGCTCAAAATCGCGCATCCAAACCCTCGCCCTCCTCCGGAGTCACCTAGTGCAG | 3440 fluorescence intensity (a.u.)
19 | CTTATTCAAGCCATGCATTCTAAGGTGACTGACATGTGGGCGGAGTCACCTAGTGCAG | 3770 fluorescence intensity (a.u.)
20 | GCGGTAACAAATCAGCGTGGACACCTGGCGTCACGCCATTCGGAGTCACCTAGTGCAG | 4920 fluorescence intensity (a.u.)
21 | ATACACTTCAGATTTGCTATGATCACTGACACTGACACGACGGAGTCACCTAGTGCAG | 3620 fluorescence intensity (a.u.)
22 | CCGGTGACTCAGTAATCACTTCGCACATTAACTCTCTCTCCGGAGTCACCTAGTGCAG | 6080 fluorescence intensity (a.u.)
23 | AGTGTCTAGTACTAGTTTCTTGATGACGTGGAGTTTATAACGGAGTCACCTAGTGCAG | 14100 fluorescence intensity (a.u.)
24 | GTTTTGGTCATTTTGCTATATGACTTTGTTTCAATAATTTCGGAGTCACCTAGTGCAG | 3990 fluorescence intensity (a.u.)
25 | AAGATGACGGTTTTAGCCCGTCACCAATGTGTGTCATCAGCGGAGTCACCTAGTGCAG | 8880 fluorescence intensity (a.u.)
26 | AACAAGACAGTGCTGTTGCTGAAACCAAACTTGGGCCTTACGGAGTCACCTAGTGCAG | 16800 fluorescence intensity (a.u.)
27 | TCCTCATCCCTGCTTCCTCTTCTACACCTCATTTTCCGCTCGGAGTCACCTAGTGCAG | 3530 fluorescence intensity (a.u.)

Row | Sequence | binding signal
28 | TCGCCAACACCAACCTAGTCACTAGATCATCGGCTTGTCTCGGAGTCACCTAGTGCAG | 5300 fluorescence intensity (a.u.)
29 | CCCGCCGCGCCGCGTCCCGGCCACCGCGCCGCCCGCCGCGCGGAGTCACCTAGTGCAG | 4250 fluorescence intensity (a.u.)
30 | TATATATCTGGGTGATTGGTGGTGAGTAGTTGTTCTTGCTCGGAGTCACCTAGTGCAG | 3170 fluorescence intensity (a.u.)
31 | TAAACCAGTTGTCACATGCCAGTCATCACATCAGCTCGCGCGGAGTCACCTAGTGCAG | 6130 fluorescence intensity (a.u.)
32 | AATACTAAATCGAGGAGGCTTTGTTTTGGTGAACTATAAGCGGAGTCACCTAGTGCAG | 25300 fluorescence intensity (a.u.)
33 | ACACGGTCCCTAGACGATTTTAACTGACGTAACATCAACACGGAGTCACCTAGTGCAG | 4880 fluorescence intensity (a.u.)
34 | ACTATCTACCTTGCGTGTCGGAAATTGTCATTCCGTTTATCGGAGTCACCTAGTGCAG | 3680 fluorescence intensity (a.u.)
35 | GACTGGTGGACGTACGTCTGCGTCGAGTCTGTCGGTCTAGCGGAGTCACCTAGTGCAG | 4290 fluorescence intensity (a.u.)
36 | GCGTAACCATCGTCACCACCACCGCGCCATCGCGGCTGGACGGAGTCACCTAGTGCAG | 4010 fluorescence intensity (a.u.)
37 | AAAACTTAATTAGTGCCAGGTCATACAGATTCCAGATAATCGGAGTCACCTAGTGCAG | 6890 fluorescence intensity (a.u.)
38 | TCGGTCGGTACTCAGTTCTTTGCCAACTACCACTGTATAACGGAGTCACCTAGTGCAG | 4650 fluorescence intensity (a.u.)
39 | ACTCCACAAGCATGCCATCCCATGAGGTGGGCTTTTGTGACGGAGTCACCTAGTGCAG | 3510 fluorescence intensity (a.u.)
40 | AAAAGACTGGAATACGTGGCGAACAAACTTTATTACACAACGGAGTCACCTAGTGCAG | 6740 fluorescence intensity (a.u.)
41 | TTTTCTGCTCCGCGCCATCTCCTCCTCTGCTCGCCTCTGCCGGAGTCACCTAGTGCAG | 3480 fluorescence intensity (a.u.)
42 | GTGTGCCACGTGGGCAATTACGATAAGCGAAGCAAAGCGGCGGAGTCACCTAGTGCAG | 24900 fluorescence intensity (a.u.)
43 | TTGTTCGAGTTGGCTAGCTAGCCAACGTGGTGGGCGCACGCGGAGTCACCTAGTGCAG | 4080 fluorescence intensity (a.u.)
44 | GCAGCTACCCAACCATCGCACCGCCACCATCGCCGGCACGCGGAGTCACCTAGTGCAG | 4680 fluorescence intensity (a.u.)
45 | CTCCCTTTCCGATGGTCAACGTGACGTCAGCAGTGAGCTTCGGAGTCACCTAGTGCAG | 21700 fluorescence intensity (a.u.)
46 | CACGCCAACGCCCAAGCCCACCAACCCAAGTTGAGTCGTGCGGAGTCACCTAGTGCAG | 3360 fluorescence intensity (a.u.)
47 | GTAGTGGACTGATTTAGGCCAATATTTTGAGAAAATATTACGGAGTCACCTAGTGCAG | 16100 fluorescence intensity (a.u.)
48 | CTCAAACCGGTGGCCCACAGGTCAGCCTCCCCATCCACCTCGGAGTCACCTAGTGCAG | 4400 fluorescence intensity (a.u.)
49 | ACAGGACATCCGACCTCAACACCCTTACAACCAATAAAAGCGGAGTCACCTAGTGCAG | 31800 fluorescence intensity (a.u.)
50 | CAGGTGGGTCCCACGCTGACTCAGCTGTCACATAGACCAACGGAGTCACCTAGTGCAG | 11300 fluorescence intensity (a.u.)
51 | GCCAAAACCAAAAGAGAGACTCCTCGCCTCGCCTCGCCTCCGGAGTCACCTAGTGCAG | 3230 fluorescence intensity (a.u.)
52 | GTAGCAGGGATTGGAGACAGTGACTCTGCACTTCCTTTCACGGAGTCACCTAGTGCAG | 4460 fluorescence intensity (a.u.)
53 | ACACTGGTGATTGGTTTGAATGCTTGCTCACGAGTTGGGTCGGAGTCACCTAGTGCAG | 4440 fluorescence intensity (a.u.)
54 | AGGAGGTTGACGACGGCGGCAGCAACGGCGGTGGCTCTCGCGGAGTCACCTAGTGCAG | 3460 fluorescence intensity (a.u.)

Laid out differently: entries from further up
Row	Sequence	binding signal
32	AATACTAAATCGAGGAGGCTTTGTTTTGGTGAACTATAAGCGGAGTCACCTAGTGCAG	25300 fluorescence intensity (a.u.)
39	ACTCCACAAGCATGCCATCCCATGAGGTGGGCTTTTGTGACGGAGTCACCTAGTGCAG	3510 fluorescence intensity (a.u.)
41	TTTTCTGCTCCGCGCCATCTCCTCCTCTGCTCGCCTCTGCCGGAGTCACCTAGTGCAG	3480 fluorescence intensity (a.u.)
47	GTAGTGGACTGATTTAGGCCAATATTTTGAGAAAATATTACGGAGTCACCTAGTGCAG	16100 fluorescence intensity (a.u.)
